Reference: patent US20110135662A1 (UCB, published 2011)
Substitutions are numbered along the chain they refer to. These are yes or no findings as the source states them, for the method shown. Some results given as binding are weak or reduced against the parent protein; the word gives no strength.

What was measured:
[1] = target: T1, B11 human (Nav 1.7) PMTEEFKN (human); assay: peptide binding ELISA (FIG. 3I legend)
T1 sequence (peptide, biotinylated for the ELISA (p-0360); exact form not printed): PMTEEFKN

[2] = target: T2, B11 mouse (Nav 1.7) PMTDEFKN (mouse); assay: peptide binding ELISA (FIG. 3I legend)
T2 sequence (peptide, biotinylated for the ELISA (p-0360); exact form not printed): PMTDEFKN

[3] = target: T1, B11 human (Nav 1.7) PMTEEFKN (human); assay: peptide binding ELISA, biotinylated peptide on streptavidin
[4] = target: T2, B11 mouse (Nav 1.7) PMTDEFKN (mouse); assay: as above

Measured: binding

B1: CA167_00983 (antibody, rabbit IgG1, V domains shown)
VH: QSVEESGGRLVTPGTPLTLTCTVSGFSLSNYAMSWVRQAPGKGLEWIGIIGKSGSTAYASWAKGRFTISRTSTTVDLEITSPTTEDTATYFCVRFVLLWGPGTLVTVS
VL: AQVLTQTASPVSAAVGGTVTINCQSSQSVYKNNDLAWYQQKPGQPPKLLIYYASTLASGVSSRFKGSGSGTEFTLTISDAQCDDAATYYCLGSYDCSSADCNAFGGGTKVVVK
notes: Rabbit monoclonal from rabbit 3824
binds: [1] | [2] | [3] | [4]

B2: CA167_01080 (antibody, rabbit IgG1, V domains shown)
VH: QSLEESGGRLVTPETPLTLTCTASGIDLSKWPMTWVRQAPGKGLEWIGIIGRSGSTNYASWAKGRFTISKTSTTVDLKMTSPTTEDTATYFCARGGSYYDLWGQGTLVTVS
VL: B1 VL with G17N, N22T, Y30W, A36S, P42L, G66A, E72Q, A80V, A86G, L91V
notes: as for B1
binds: [1] | [2] | [3] | [4]
